The other results are listed elsewhere or left out. Shown are side measurements of this screen, not its main read-out; they come without a call. Most of these compounds were active or inconclusive in the main read-out, so they are no random draw. Potencies come from curve fits of mixed quality, noted in brackets.
Assay: qHTS Assay for Modulators of Lamin A Splicing
Conditions: HeLa LMNA splicing GFP/RFP minigene ratio, 48 h
Outline: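 S3 HeLa stable clones carrying a lamin A-EGFP splicing minigene plus DsRed2 were seeded at 600 cells/well in Opti-MEM with 2% FBS, pin-dosed and incubated 48 h at 37°C. Acumen cytometry (488 nm) gave the GFP/RFP total-intensity ratio.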

[1] = measured here: RFP viability control channel
[2] = measured here: GFP splicing reporter channel

Row | Structure (SMILES) | AC50 [1] | AC50 [2]
1 | COc1ccc(N2CCN(C(=O)c3ccc(OCC4CCCO4)cc3)CC2)cc1 (centres undefined) | 10 µM [rising, partial curve] | 
2 | Cc1cc(C)nc(N/C(=N\S(=O)(=O)Cc2ccccc2)Nc2ccccc2Br)n1 | 35.5 µM [rising, single point] | 35.5 µM [rising, single point]
3 | O=C(Nc1cccc(-c2csc(-c3ccccc3)n2)c1)c1cccs1 | 10 µM [rising, partial curve, poor fit] | 
4 | COC(=O)c1c(-c2cccc(C)c2)csc1NC(=O)C1CCCO1 (centres undefined) |  | 25.1 µM [falling, single point]
5 | Cc1cccc(-n2c(SCC(=O)N3CC(=O)Nc4ccccc43)nc3ccccc3c2=O)c1C | 12.6 µM [rising, single point] | 
6 | CCOC(=O)c1cc2oc(C(c3nnnn3C3CCCCC3)N3CCOCC3)cc2[nH]1 (centres undefined) | 12.6 µM [rising, partial curve] | 
7 | Cc1ccc(Cl)cc1N(CC(=O)NCc1ccc2c(c1)OCO2)S(C)(=O)=O | 11.2 µM [rising, partial curve] | 10 µM [rising, partial curve, poor fit]
8 | Cc1ccc(NC(=O)CCC(=O)NNC(=O)c2cccc([N+](=O)[O-])c2)cc1C | 35.5 µM [falling, single point] | 
9 | O=C(COc1ccccc1F)OCc1cc(=O)n2nc(-c3cccs3)sc2n1 | 0.398 µM [falling, full curve, poor fit] | 
10 | CCOc1cc(N2CCOCC2)c(OCC)cc1NC(=O)c1ccc(C)cc1 | 22.4 µM [rising, partial curve] | 
11 | COCCCn1c(SCc2cccc(C(F)(F)F)c2)nc2cc(OC)c(OC)cc2c1=N | 17.8 µM [falling, single point] | 
12 | COc1cccc(Oc2ccc(C(F)(F)F)cc2NC(=O)c2cccc(F)c2)c1 | 20 µM [rising, single point] | 12.6 µM [rising, partial curve]
13 | COc1ccc(NC(=O)c2c(NCc3ccc(C)o3)sc3c2CCC(C)C3)c(OC)c1 (centres undefined) | 3.55 µM [falling, partial curve] | 6.31 µM [falling, partial curve, poor fit]
14 | CC1(C)CC(CC(=O)Nc2ccccc2[N+](=O)[O-])C(=O)O1 (centres undefined) | 0.141 µM [rising, full curve, poor fit] | 0.178 µM [rising, full curve, poor fit]
15 | COc1ccc(OC)c(NC(=O)CSc2ccnc(=O)[nH]2)c1 |  | 0.00447 µM [rising, full curve, poor fit]
16 | Cc1ccc(Nc2nc(-c3c(C)nc4ncccn34)cs2)cc1 | 0.251 µM [falling, full curve] | 0.282 µM [falling, full curve]
17 | NS(=O)(=O)c1ccc(CNC(=O)CSc2ccccc2)cc1 | 1.12 µM [falling, full curve, poor fit] | 20 µM [falling, partial curve, poor fit]
18 | O=C(CN1CCC(C(=O)c2ccc(F)cc2)CC1)Nc1ccc(F)cc1 | 17.8 µM [rising, single point] | 

Part of the list above in order of length of the SMILES, descending:
Row | Structure (SMILES) | AC50 [1] | AC50 [2]
13 | COc1ccc(NC(=O)c2c(NCc3ccc(C)o3)sc3c2CCC(C)C3)c(OC)c1 (centres undefined) | 3.55 µM [falling, partial curve] | 6.31 µM [falling, partial curve, poor fit]
18 | O=C(CN1CCC(C(=O)c2ccc(F)cc2)CC1)Nc1ccc(F)cc1 | 17.8 µM [rising, single point] | 
3 | O=C(Nc1cccc(-c2csc(-c3ccccc3)n2)c1)c1cccs1 | 10 µM [rising, partial curve, poor fit] | 

Going on with the list.

Row | Structure (SMILES) | AC50 [1] | AC50 [2]
19 | CCOc1cc(N2CCOCC2)c(OCC)cc1NC(=O)COc1cccc2cccnc12 | 31.6 µM [rising, single point] | 
20 | COC(=O)c1c(-c2ccc(Cl)cc2)noc1N1CCN(c2ccc(OC)cc2)CC1 | 35.5 µM [falling, single point] | 10 µM [falling, partial curve]
21 | CC(=O)c1ccc(NC(=O)C2CC(=O)N(C(C)C)C2)cc1 (centres undefined) | 35.5 µM [falling, single point] | 
22 | CCCOc1ccc(C(=O)c2nc3c(n2O)CCCC3)cc1 | 12.6 µM [rising, partial curve] | 
23 | CCOC(=O)c1cnc(SC)nc1Oc1cccc(NS(=O)(=O)c2ccc(Cl)cc2)c1 | 0.0891 µM [rising, full curve, poor fit] | 
24 | CCCc1cc(-c2nc(-c3ccc(Cl)cc3)cs2)ccn1 | 31.6 µM [rising, single point] | 25.1 µM [rising, single point]
25 | CN(C)/C=N/c1[nH]ncc1C#N |  | 3.98 µM [rising, partial curve, poor fit]
26 | COc1ccc(C(=O)N/N=C/c2cccc3cccnc23)cc1 | 35.5 µM [falling, single point] | 35.5 µM [falling, single point]
27 | Cc1nn(-c2ccccc2)c(Cl)c1CN(C(=O)CCl)c1ccc(Cl)cc1 | 17.8 µM [falling, single point] | 12.6 µM [falling, partial curve]
28 | COc1ccc(CCNC(=O)C(=O)Nc2ccc3c(c2)OCCO3)cc1OC | 0.02 µM [rising, full curve, poor fit] | 2 µM [rising, full curve, poor fit]
29 | O=C(Cn1c(=O)nc(-c2ccccc2)c2ccccc21)Nc1ccc(Cl)c(C(F)(F)F)c1 |  | 3.98 µM [rising, full curve]
30 | Cc1[nH]c2ccccc2c1C(c1ccccn1)N1CCC(C(N)=O)CC1 (centres undefined) | 14.1 µM [rising, single point] | 15.8 µM [rising, single point]
31 | Cc1ccc(Cn2ccc(NC(=O)c3cc(CC(C)C)on3)n2)cc1 | 12.6 µM [rising, partial curve] | 
32 | COC(=O)CCCC1=CC2=CC(=O)C(C)(OC(=O)c3cccs3)C(=O)C2=CN1C(CO)CO (centres undefined) | 0.282 µM [falling, partial curve] | 
33 | COCCNC(=O)C(c1ccc(C)o1)N(C(=O)c1snc(C(N)=O)c1N)c1cc(C)cc(C)c1 (centres undefined) | 10 µM [rising, single point] | 
34 | Cn1c(=O)c2c(SCC(=O)N3CCc4ccccc43)nc(-c3ccccc3Cl)nc2n(C)c1=O |  | 0.158 µM [rising, full curve, poor fit]
35 | Cc1ccc(C)c(NC(=O)c2ccc3c(c2)N(Cc2ccc(F)cc2)C(=O)CS3=O)c1 (centres undefined) | 2.24 µM [rising, partial curve] | 7.08 µM [rising, partial curve]
